Measured values as given in the supplement of paper PMC10849652.
This is one part of the list.

Chains of the proteins cited; added tags and fusions are not shown. Lines headed by an entry give the natural chain unless they say otherwise; changes in a name come on top.
UniProt P52298: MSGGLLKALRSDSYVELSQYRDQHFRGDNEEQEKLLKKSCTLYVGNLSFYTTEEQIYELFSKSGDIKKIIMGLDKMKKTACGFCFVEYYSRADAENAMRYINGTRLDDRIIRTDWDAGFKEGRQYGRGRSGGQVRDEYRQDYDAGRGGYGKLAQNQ
UniProt Q147X3: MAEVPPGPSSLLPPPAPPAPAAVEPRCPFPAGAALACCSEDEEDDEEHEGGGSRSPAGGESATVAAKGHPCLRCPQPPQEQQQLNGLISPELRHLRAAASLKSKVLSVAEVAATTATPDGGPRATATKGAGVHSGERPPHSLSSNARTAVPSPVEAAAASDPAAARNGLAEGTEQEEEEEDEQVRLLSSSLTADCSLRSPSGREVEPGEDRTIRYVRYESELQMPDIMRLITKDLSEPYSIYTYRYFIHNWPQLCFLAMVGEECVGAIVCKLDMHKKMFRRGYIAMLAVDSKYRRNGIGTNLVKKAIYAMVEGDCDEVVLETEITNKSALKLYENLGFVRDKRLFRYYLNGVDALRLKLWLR
UniProt P41227: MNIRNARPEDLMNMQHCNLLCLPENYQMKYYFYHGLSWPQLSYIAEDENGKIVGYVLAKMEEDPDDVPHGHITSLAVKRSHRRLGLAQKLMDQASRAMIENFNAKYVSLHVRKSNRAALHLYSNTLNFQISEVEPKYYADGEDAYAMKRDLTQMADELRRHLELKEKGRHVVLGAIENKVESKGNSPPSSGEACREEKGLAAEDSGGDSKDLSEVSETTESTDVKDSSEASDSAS
UniProt Q5VZE5: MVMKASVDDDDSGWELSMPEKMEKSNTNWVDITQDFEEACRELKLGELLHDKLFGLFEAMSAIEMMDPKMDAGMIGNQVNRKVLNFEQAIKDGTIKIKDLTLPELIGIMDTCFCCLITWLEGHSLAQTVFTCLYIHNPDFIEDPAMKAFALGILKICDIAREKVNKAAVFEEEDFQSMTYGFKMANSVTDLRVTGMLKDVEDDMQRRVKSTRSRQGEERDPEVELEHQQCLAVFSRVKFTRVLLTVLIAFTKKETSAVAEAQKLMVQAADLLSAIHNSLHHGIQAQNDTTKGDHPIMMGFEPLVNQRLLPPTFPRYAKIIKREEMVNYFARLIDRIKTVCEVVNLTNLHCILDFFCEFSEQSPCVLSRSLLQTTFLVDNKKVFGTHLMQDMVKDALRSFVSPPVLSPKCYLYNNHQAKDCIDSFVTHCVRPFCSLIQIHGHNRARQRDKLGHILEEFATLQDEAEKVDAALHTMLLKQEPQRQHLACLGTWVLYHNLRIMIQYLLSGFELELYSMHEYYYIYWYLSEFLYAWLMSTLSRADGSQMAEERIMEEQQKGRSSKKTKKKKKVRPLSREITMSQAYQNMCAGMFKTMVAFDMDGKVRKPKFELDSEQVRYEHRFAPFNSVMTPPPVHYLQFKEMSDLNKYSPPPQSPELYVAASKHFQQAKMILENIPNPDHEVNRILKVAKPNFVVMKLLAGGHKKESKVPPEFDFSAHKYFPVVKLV
UniProt P54920: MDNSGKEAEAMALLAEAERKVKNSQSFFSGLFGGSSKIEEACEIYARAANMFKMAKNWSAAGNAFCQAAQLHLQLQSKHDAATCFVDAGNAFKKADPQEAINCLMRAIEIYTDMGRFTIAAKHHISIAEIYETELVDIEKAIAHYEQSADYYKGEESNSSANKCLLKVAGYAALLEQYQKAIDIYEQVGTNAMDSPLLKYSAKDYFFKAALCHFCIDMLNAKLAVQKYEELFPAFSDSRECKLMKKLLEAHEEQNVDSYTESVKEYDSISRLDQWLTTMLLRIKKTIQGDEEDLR
UniProt Q96HR8: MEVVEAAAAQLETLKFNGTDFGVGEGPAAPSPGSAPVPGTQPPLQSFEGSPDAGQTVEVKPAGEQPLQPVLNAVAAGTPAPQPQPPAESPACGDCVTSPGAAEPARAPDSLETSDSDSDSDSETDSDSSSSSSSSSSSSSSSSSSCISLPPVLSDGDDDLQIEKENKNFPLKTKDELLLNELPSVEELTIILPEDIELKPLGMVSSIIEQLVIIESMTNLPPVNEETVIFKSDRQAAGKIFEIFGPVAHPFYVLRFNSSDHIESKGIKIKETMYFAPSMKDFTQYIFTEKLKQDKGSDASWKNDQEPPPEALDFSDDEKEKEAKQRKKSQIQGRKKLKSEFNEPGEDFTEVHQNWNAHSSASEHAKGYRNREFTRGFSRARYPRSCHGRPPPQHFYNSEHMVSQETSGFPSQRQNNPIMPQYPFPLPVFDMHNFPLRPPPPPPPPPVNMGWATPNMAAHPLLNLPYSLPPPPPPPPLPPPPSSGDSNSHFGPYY
UniProt P60660, whole entry, looked up: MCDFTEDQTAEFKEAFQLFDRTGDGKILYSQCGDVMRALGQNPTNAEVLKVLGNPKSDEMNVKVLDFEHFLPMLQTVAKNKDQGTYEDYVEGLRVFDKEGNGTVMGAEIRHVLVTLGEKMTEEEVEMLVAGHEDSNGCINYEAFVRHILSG
UniProt Q9H115: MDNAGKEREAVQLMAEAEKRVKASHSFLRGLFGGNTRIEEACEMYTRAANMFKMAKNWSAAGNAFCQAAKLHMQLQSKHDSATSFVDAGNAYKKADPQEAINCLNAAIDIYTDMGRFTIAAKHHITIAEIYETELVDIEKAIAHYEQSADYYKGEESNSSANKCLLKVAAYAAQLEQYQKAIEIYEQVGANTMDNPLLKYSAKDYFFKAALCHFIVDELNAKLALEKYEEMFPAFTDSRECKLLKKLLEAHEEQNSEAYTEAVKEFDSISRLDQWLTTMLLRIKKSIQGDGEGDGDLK
UniProt P10242: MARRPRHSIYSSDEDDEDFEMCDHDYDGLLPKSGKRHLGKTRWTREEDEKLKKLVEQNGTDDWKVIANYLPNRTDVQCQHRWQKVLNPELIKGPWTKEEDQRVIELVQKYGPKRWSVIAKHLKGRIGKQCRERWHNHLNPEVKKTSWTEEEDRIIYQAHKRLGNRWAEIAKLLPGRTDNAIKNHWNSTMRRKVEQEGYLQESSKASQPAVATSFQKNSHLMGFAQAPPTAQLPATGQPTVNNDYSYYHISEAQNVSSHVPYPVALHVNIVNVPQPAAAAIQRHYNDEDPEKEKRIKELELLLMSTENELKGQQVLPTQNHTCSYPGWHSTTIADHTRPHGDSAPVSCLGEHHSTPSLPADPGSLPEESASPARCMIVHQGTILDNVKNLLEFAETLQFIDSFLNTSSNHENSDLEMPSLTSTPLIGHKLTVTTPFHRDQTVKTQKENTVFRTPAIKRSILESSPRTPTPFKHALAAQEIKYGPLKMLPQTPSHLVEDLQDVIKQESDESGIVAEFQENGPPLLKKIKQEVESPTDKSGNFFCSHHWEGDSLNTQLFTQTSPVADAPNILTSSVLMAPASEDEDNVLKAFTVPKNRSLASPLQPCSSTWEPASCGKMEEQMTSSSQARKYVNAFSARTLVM
UniProt O14950, whole entry, looked up: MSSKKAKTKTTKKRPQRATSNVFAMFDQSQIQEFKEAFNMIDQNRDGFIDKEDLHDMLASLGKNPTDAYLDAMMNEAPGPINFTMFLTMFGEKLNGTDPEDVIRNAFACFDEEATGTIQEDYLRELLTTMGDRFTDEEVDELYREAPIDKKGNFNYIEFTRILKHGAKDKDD
UniProt Q53F19: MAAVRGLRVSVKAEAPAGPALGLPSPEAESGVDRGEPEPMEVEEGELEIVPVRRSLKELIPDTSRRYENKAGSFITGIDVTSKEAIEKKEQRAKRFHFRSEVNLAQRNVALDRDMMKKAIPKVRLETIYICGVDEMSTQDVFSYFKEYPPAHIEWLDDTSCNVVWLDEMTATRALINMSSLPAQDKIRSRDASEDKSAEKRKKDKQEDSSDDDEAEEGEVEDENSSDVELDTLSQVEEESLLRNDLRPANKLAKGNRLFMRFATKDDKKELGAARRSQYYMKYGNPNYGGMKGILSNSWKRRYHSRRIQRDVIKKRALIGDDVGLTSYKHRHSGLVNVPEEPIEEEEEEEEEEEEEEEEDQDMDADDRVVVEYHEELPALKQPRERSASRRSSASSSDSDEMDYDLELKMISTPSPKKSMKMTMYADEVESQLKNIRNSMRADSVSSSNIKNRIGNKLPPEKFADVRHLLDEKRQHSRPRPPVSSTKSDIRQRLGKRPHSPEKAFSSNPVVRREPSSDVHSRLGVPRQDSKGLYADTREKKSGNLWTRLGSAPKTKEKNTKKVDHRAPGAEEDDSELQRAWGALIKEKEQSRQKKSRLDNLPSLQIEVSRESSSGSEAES
UniProt Q8NEY1: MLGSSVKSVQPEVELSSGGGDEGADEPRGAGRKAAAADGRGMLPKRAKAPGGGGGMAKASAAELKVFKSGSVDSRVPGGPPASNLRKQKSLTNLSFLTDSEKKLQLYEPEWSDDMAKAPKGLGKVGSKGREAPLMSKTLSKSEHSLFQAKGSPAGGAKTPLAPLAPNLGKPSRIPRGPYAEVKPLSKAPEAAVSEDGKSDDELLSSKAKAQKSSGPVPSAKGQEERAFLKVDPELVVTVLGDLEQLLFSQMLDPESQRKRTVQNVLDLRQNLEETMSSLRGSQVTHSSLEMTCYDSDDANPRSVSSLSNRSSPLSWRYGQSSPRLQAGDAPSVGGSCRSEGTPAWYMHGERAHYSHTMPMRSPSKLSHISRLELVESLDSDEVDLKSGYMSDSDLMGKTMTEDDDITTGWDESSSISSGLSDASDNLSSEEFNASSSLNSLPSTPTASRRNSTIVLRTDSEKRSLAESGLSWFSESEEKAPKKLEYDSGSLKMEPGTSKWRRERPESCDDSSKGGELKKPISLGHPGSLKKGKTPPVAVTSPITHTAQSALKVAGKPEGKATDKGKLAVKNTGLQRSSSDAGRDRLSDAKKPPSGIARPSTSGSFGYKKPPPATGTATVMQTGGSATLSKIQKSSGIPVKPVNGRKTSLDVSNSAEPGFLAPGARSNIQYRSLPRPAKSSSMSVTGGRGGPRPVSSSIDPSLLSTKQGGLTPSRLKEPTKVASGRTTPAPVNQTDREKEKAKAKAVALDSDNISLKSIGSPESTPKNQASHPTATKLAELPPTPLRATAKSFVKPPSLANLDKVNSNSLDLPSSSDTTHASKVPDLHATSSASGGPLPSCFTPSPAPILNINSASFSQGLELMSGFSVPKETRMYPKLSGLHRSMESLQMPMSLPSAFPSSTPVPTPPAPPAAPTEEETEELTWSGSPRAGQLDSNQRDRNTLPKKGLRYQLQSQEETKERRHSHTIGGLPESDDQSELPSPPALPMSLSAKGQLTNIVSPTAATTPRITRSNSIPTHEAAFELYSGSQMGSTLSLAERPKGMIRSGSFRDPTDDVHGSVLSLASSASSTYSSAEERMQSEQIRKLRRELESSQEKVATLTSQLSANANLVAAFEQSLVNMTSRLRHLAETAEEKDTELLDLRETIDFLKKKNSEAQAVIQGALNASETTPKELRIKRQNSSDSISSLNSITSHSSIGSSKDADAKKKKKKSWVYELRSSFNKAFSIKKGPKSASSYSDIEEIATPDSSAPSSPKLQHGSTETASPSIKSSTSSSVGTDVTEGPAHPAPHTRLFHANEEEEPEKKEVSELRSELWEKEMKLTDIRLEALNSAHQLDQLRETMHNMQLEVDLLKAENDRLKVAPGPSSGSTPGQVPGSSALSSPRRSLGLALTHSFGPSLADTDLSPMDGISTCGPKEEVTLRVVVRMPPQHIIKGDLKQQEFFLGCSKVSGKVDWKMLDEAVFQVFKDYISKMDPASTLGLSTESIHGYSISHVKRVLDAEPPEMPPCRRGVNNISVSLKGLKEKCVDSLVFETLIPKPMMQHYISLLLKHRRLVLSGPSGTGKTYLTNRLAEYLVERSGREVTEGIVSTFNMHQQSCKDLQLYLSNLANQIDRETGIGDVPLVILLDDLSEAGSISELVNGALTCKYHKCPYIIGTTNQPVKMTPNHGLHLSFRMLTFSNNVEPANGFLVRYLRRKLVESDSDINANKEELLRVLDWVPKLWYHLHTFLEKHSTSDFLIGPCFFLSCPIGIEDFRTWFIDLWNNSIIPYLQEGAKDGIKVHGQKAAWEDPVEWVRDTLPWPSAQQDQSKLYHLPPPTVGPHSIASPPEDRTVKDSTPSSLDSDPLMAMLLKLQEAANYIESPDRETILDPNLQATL

Key:
Test in all cases: log2 fold change, soluble protein after heating vs DMSO (PISA); higher = thermal stabilisation; K562 lysate, 10 uM; active = over 0.2 and 3.5 SD of the protein, either way, in both replicates (recomputed)
[1] = compound: CCCS(=O)(=O)Nc1ccc(F)c(C(=O)c2c[nH]c3ncc(-c4ccc(Cl)cc4)cc23)c1F [vemurafenib]
Summary of the method: (§1)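 K562 pellets were dounce-homogenised in PBS pH 7.4 with 1 mM MgCl2, and the crude extract at 1 mg/mL protein was treated with 10 μM compound for 30 min. Aliquots were heated for 3 min across 48°C-58°C, pooled, and brought to 0.5% NP-40 at 4°C; soluble protein was the supernatant after 21,000xg for 90 min. Soluble protein was quantified by TMTpro 16plex LC-MS/MS with channel sums equalised, and reported as log2 fold change in thermal stability against DMSO controls, with values from duplicates.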

[2] = compound: CCCS(=O)(=O)Nc1ccc(F)c(C(=O)c2c[nH]c3ncc(Cl)cc23)c1F
Summary of the method: as §1

[3] = compound: CCN(CCCOc1ccc2c(Nc3cc(CC(=O)Nc4cccc(F)c4)[nH]n3)ncnc2c1)CCOP(=O)(O)O [barasertib]
Summary of the method: as §1

[4] = compound: CC[C@@H]1C(=O)N(C)c2cnc(Nc3ccc(C(=O)NC4CCN(C)CC4)cc3OC)nc2N1C1CCCC1
Summary of the method: as §1

[5] = compound: CC[C@@H]1C(=O)N(C)c2cnc(Nc3ccc(C(=O)N[C@H]4CC[C@H](N5CCN(CC6CC6)CC5)CC4)cc3OC)nc2N1C(C)C [volasertib]
Summary of the method: as §1

[6] = compound: CCn1c(C(=O)N(C2CC2)C2CC2)cc2c3c(ncn3C)c(Nc3cc(C)n(C)n3)nc21
Summary of the method: as §1

[7] = compound: CCn1cc(-c2ccnc3[nH]c(-c4cccc(CN(C)C)c4)cc23)c(-c2ccc(NC(=O)N(C)C)cc2)n1
Summary of the method: as §1

[8] = compound: CN1CCC(CNc2ccc3ncc(-c4cccc(OC(F)(F)F)c4)n3n2)CC1
Summary of the method: as §1

[9] = compound: CN1CCN(CCOc2cc(OC3CCOCC3)c3c(Nc4c(Cl)ccc5c4OCO5)ncnc3c2)CC1 [saracatinib]
Summary of the method: as §1

[10] = compound: CN1CCN(c2nc(C3=C(c4c[nH]c5ccccc45)C(=O)NC3=O)c3ccccc3n2)CC1 [sotrastaurin]
Summary of the method: as §1

[11] = compound: CN1CC[C@H](c2c(O)cc(O)c3c(=O)cc(-c4ccccc4Cl)oc23)[C@H](O)C1 [alvocidib]
Summary of the method: as §1

[12] = compound: CN1CCc2c(c3ccccc3n2Cc2ccc(C(=O)NO)cc2)C1 [Tubastatin A]
Summary of the method: as §1

[13] = compound: CNC(=O)C1=CC=CC=C1NC2=NC(=NC=C2Cl)NC3=C(C=C(C=C3)N4CCOCC4)OC
Summary of the method: as §1

[14] = compound: CNC(=O)c1ccc(Nc2ncc(C(F)(F)F)c(NCc3nccnc3N(C)S(C)(=O)=O)n2)cc1 [defactinib]
Summary of the method: as §1

[15] = compound: CNc1nc(-c2ccc3c(N)n[nH]c3c2)cc(N2C[C@@H](C(=O)NC3CCCCC3)CC[C@H]2C)n1
Summary of the method: as §1

[16] = compound: COC(=O)N[C@@H](C)CNc1nccc(-c2cn(C(C)C)nc2-c2cc(Cl)cc(NS(C)(=O)=O)c2F)n1 [encorafenib]
Summary of the method: as §1

[17] = compound: COC(=O)[C@H](CCSC)NC(=O)C1=C(C=C(C=C1)NC[C@H](CS)N)C2=CC=CC=C2
Summary of the method: as §1

[18] = compound: COc1cc(Nc2ncc3c(n2)-c2ccc(Cl)cc2C(c2c(F)cccc2OC)=NC3)ccc1C(=O)O [alisertib]
Summary of the method: as §1

[19] = compound: COc1cc2nc(-c3cc(F)ccc3O)nc(N[C@@H]3CNC[C@H]3C(C)(C)O)c2cc1OC
Summary of the method: as §1

[20] = compound: COc1cc2ncnc(Nc3ccc(F)c(Cl)c3)c2cc1OCCCN1CCOCC1 [gefitinib]
Summary of the method: as §1

Measured: log2 fold change

NCKIPSD (UniProt Q9NZQ3)
inactive: [1] 0.036 | [2] 0.005 | [3] 0.05 | [4] -0.051 | [5] -0.071 | [6] 0.066 | [7] -0.03 | [8] -0.029 | [9] -0.012 | [10] 0.015 | [11] 0.015 | [12] -0.12 | [13] -0.015 | [14] 0.059 | [15] -0.048 | [16] 0.072 | [17] -0.007 | [18] 0.024 | [19] 0.013 | [20] 0.021

NBN (UniProt O60934)
inactive: [1] 0.011 | [2] 0.011 | [3] 0.037 | [4] -0.028 | [5] -0.019 | [6] -0.003 | [7] 0.043 | [8] -0.058 | [9] 0.025 | [10] 0.001 | [11] 0.008 | [12] -0.041 | [13] -0.006 | [14] -0.029 | [15] 0.014 | [16] 0.022 | [17] 0.048 | [18] -0.009 | [19] 0.018 | [20] -0.061

NCBP2 (UniProt P52298)
inactive: [1] 0.039 | [2] -0.002 | [3] -0.025 | [4] 0.003 | [5] -0.009 | [6] 0.011 | [7] 0.002 | [8] -0.035 | [9] -0.047 | [10] 0.034 | [11] 0.007 | [12] -0.005 | [13] -0.085 | [14] -0.043 | [15] -0.077 | [16] -0.014 | [17] -0.059 | [18] 0.001 | [19] 0.014 | [20] 0.001

NAA30 (UniProt Q147X3)
inactive: [1] 0.001 | [2] 0.009 | [3] 0.037 | [4] 0.043 | [5] 0.012 | [6] -0.058 | [7] -0.022 | [8] 0.043 | [9] -0.003 | [10] 0.045 | [11] -0.03 | [12] 0.051 | [13] -0.023 | [14] 0.002 | [15] 0.023 | [16] -0.032 | [17] 0.008 | [18] 0.039 | [19] -0.066 | [20] 0.015

NAA10 (UniProt P41227)
inactive: [1] 0.008 | [2] -0.002 | [3] -0.017 | [4] -0.022 | [5] -0.014 | [6] 0.031 | [7] 0.066 | [8] -0.028 | [9] 0.011 | [10] -0.004 | [11] 0.026 | [12] -0.003 | [13] 0.009 | [14] -0.013 | [15] -0.012 | [16] 0.005 | [17] 0.015 | [18] 0.01 | [19] -0.005 | [20] -0.015

NAA35 (UniProt Q5VZE5)
inactive: [1] 0 | [2] 0.015 | [3] -0.01 | [4] 0.05 | [5] -0.026 | [6] 0.001 | [7] 0.179 | [8] -0.035 | [9] 0.026 | [10] 0.006 | [11] 0.018 | [12] -0.056 | [13] -0.007 | [14] 0.034 | [15] 0 | [16] 0.01 | [17] -0.001 | [18] -0.026 | [19] -0.006 | [20] -0.008

MVB12A (UniProt Q96EY5)
inactive: [1] -0.017 | [2] 0.005 | [3] -0.04 | [4] 0.094 | [5] -0.001 | [6] 0.03 | [7] 0.009 | [8] -0.001 | [9] 0.015 | [10] 0.01 | [11] -0.019 | [12] -0.221 | [13] -0.009 | [14] 0.056 | [15] 0.037 | [16] -0.015 | [17] -0.012 | [18] -0.011 | [19] -0.035 | [20] -0.055

NAPA (UniProt P54920)
inactive: [1] -0.003 | [2] 0.019 | [3] -0.012 | [4] 0.038 | [5] 0.004 | [6] -0.017 | [7] 0.121 | [8] 0.008 | [9] -0.018 | [10] -0.118 | [11] 0.001 | [12] 0.035 | [13] 0.01 | [14] 0.001 | [15] 0.048 | [16] -0.005 | [17] -0.076 | [18] -0.009 | [19] 0.026 | [20] -0.006

NAF1 (UniProt Q96HR8)
inactive: [1] 0.023 | [2] -0.009 | [3] 0.026 | [4] 0.042 | [5] 0.056 | [6] 0.044 | [7] -0.019 | [8] 0.011 | [9] 0.043 | [10] -0.069 | [11] -0.003 | [12] -0.028 | [13] 0.016 | [14] -0.015 | [15] -0.028 | [16] -0.015 | [17] -0.038 | [18] 0 | [19] -0.063 | [20] -0.006

NACA (UniProt E9PAV3)
inactive: [1] -0.005 | [2] -0.013 | [3] -0.056 | [4] 0.039 | [5] 0.017 | [6] -0.023 | [7] -0.187 | [8] 0.083 | [9] -0.01 | [10] 0.032 | [11] -0.054 | [12] 0.045 | [13] -0.006 | [14] 0.015 | [15] 0.038 | [16] 0.012 | [17] -0.029 | [18] 0 | [19] 0.011 | [20] -0.007

Fetched one by one from the list above (2):
NAPA (UniProt P54920)
inactive: [1] -0.003 | [2] 0.019 | [3] -0.012 | [4] 0.038 | [5] 0.004 | [6] -0.017 | [7] 0.121 | [8] 0.008 | [9] -0.018 | [10] -0.118 | [11] 0.001 | [12] 0.035 | [13] 0.01 | [14] 0.001 | [15] 0.048 | [16] -0.005 | [17] -0.076 | [18] -0.009 | [19] 0.026 | [20] -0.006

NCBP2 (UniProt P52298)
inactive: [1] 0.039 | [2] -0.002 | [3] -0.025 | [4] 0.003 | [5] -0.009 | [6] 0.011 | [7] 0.002 | [8] -0.035 | [9] -0.047 | [10] 0.034 | [11] 0.007 | [12] -0.005 | [13] -0.085 | [14] -0.043 | [15] -0.077 | [16] -0.014 | [17] -0.059 | [18] 0.001 | [19] 0.014 | [20] 0.001

(list continues)

MYL6 (UniProt P60660)
inactive: [1] -0.009 | [2] -0.032 | [3] 0.163 | [4] 0.052 | [5] 0.043 | [6] 0.006 | [7] -0.073 | [8] -0.054 | [9] -0.008 | [10] -0.017 | [11] 0.055 | [12] 0.022 | [13] -0.019 | [14] 0.013 | [15] -0.015 | [16] -0.012 | [17] -0.056 | [18] 0.043 | [19] -0.031 | [20] -0.034

NAPB (UniProt Q9H115)
inactive: [1] 0.019 | [2] -0.022 | [3] 0.006 | [4] 0.029 | [5] 0.051 | [6] 0.033 | [7] 0.214 | [8] -0.121 | [9] -0.06 | [10] -0.052 | [11] 0.113 | [12] 0.014 | [13] 0.03 | [14] 0.166 | [15] 0.121 | [16] 0.012 | [17] -0.05 | [18] 0.024 | [19] -0.014 | [20] -0.118

MYB isoform 4 (UniProt P10242)
inactive: [1] -0.126 | [2] 0.02 | [3] 0.013 | [4] -0.058 | [5] -0.038 | [6] 0.058 | [7] 0.332 | [8] -0.074 | [9] -0.071 | [10] 0.069 | [11] 0.017 | [12] -0.147 | [13] 0.058 | [14] 0.006 | [15] -0.006 | [16] 0.056 | [17] -0.185 | [18] -0.008 | [19] -0.032 | [20] 0.094

MYL12B (UniProt O14950)
inactive: [1] 0 | [2] 0.02 | [3] -0.032 | [4] 0.048 | [5] -0.009 | [6] 0.026 | [7] 0.169 | [8] -0.012 | [9] 0 | [10] -0.009 | [11] 0.012 | [12] -0.006 | [13] 0.002 | [14] 0.003 | [15] 0.025 | [16] -0.002 | [17] -0.042 | [18] -0.019 | [19] -0.005 | [20] -0.009

NCBP3 (UniProt Q53F19)
inactive: [1] -0.074 | [2] -0.008 | [3] 0 | [4] -0.021 | [5] -0.042 | [6] -0.036 | [7] -0.01 | [8] -0.01 | [9] -0.109 | [10] -0.018 | [11] -0.034 | [12] 0.009 | [13] 0.076 | [14] 0.09 | [15] 0.015 | [16] 0.036 | [17] 0.069 | [18] -0.03 | [19] -0.035 | [20] 0.01

NAV1 (UniProt Q8NEY1)
inactive: [1] -0.042 | [2] -0.005 | [3] 0.005 | [4] -0.027 | [5] 0.059 | [6] 0 | [7] -0.281 | [8] -0.184 | [9] -0.041 | [10] -0.011 | [11] -0.072 | [12] -0.052 | [13] -0.013 | [14] -0.103 | [15] 0.068 | [16] 0.086 | [17] 0.033 | [18] 0.04 | [19] 0.018 | [20] -0.002
